In the supplement of paper PMC10849652:
The list shows a part of the results.

Amino acid sequences for entries named in this document (tags omitted). A change or cut given only in a name is not applied to a line headed by its entry.
UniProt Q9H267: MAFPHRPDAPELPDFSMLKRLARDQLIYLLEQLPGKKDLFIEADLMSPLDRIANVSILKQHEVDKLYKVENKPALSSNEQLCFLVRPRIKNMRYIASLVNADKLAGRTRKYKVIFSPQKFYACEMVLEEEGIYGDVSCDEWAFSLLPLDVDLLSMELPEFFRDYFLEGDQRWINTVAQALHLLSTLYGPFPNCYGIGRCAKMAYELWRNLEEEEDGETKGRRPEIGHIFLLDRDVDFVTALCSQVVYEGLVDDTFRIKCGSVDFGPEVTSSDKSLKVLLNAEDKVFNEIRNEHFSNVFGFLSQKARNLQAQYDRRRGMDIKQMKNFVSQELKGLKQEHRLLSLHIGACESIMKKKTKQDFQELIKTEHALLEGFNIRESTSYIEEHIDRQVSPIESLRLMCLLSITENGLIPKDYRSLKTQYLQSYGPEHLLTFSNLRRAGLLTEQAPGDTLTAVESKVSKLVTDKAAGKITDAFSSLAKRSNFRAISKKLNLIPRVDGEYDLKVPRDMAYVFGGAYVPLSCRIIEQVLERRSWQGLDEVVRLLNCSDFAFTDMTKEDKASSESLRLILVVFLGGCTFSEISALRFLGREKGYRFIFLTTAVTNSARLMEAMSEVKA
UniProt O94967: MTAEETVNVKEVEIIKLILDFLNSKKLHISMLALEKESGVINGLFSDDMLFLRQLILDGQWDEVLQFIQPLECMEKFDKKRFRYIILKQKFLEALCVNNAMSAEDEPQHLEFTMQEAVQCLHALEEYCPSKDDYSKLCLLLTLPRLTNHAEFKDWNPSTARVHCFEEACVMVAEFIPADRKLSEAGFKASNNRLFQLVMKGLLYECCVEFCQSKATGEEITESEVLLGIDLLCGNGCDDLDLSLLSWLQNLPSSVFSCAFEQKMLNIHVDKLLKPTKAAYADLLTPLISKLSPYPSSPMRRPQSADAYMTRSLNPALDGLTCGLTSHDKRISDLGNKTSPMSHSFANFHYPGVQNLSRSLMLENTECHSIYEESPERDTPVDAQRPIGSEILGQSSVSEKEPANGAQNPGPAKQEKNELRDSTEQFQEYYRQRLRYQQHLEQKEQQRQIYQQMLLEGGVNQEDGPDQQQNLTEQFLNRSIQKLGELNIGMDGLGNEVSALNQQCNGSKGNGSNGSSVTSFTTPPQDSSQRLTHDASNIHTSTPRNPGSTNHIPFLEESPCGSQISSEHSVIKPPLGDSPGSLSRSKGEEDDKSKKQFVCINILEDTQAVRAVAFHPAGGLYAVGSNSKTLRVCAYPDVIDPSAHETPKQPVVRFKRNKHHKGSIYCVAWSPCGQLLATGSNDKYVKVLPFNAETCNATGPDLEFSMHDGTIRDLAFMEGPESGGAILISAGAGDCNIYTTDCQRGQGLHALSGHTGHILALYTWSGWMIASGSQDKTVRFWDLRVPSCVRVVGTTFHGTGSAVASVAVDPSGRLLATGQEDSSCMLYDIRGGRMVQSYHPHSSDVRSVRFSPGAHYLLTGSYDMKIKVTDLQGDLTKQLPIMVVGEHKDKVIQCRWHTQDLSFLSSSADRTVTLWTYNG
UniProt Q86VN1: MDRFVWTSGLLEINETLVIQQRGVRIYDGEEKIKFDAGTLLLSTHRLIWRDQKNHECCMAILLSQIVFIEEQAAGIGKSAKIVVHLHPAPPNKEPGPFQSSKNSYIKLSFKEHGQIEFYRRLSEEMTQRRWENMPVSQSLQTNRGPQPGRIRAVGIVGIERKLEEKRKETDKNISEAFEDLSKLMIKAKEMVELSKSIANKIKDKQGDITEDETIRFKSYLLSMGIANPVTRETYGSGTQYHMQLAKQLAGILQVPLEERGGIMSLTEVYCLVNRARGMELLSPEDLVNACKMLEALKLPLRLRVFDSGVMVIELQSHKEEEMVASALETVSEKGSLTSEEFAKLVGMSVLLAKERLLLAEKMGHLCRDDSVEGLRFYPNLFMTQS
UniProt Q9UEU0: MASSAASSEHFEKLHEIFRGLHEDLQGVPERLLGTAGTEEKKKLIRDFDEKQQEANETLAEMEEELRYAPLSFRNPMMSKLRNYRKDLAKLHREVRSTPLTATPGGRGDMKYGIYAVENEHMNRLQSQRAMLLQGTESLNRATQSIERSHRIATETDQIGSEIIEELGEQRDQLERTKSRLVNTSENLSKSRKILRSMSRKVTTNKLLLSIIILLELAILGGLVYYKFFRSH
UniProt Q641Q2, whole entry, looked up: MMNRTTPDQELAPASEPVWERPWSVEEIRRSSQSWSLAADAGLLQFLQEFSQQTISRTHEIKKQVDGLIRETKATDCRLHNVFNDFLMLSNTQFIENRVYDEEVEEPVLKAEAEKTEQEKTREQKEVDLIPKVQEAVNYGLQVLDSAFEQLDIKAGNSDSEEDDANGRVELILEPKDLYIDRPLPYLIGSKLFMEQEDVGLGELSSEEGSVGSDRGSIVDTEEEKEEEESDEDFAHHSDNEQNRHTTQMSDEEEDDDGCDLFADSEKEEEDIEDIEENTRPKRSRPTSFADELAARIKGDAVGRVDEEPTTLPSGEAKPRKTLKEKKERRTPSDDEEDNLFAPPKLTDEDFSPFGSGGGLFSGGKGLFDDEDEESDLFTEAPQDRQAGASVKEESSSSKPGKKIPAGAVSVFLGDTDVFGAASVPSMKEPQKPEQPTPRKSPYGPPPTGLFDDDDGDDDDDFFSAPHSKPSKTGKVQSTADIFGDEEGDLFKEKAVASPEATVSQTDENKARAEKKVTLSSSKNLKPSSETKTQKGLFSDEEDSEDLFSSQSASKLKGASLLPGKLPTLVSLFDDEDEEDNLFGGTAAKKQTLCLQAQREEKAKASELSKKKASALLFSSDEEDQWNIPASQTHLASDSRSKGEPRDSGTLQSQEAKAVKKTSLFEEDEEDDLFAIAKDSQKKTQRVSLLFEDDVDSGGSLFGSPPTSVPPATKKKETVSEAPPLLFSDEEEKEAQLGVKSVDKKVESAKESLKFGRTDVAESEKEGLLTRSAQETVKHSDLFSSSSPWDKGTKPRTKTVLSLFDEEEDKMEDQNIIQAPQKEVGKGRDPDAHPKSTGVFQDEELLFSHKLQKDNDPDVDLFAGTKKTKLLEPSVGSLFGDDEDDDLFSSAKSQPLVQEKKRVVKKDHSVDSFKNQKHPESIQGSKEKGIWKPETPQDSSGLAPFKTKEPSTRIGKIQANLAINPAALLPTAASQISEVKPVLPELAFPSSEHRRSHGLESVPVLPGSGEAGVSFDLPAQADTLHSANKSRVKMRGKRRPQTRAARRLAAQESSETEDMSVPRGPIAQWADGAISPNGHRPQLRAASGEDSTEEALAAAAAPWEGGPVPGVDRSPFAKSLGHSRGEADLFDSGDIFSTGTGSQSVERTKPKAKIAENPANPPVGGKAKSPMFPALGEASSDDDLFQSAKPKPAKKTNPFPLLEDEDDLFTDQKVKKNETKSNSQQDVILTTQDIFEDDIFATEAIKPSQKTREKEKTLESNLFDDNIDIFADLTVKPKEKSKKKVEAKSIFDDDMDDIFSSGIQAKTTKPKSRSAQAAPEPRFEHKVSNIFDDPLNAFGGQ
UniProt Q96AJ9: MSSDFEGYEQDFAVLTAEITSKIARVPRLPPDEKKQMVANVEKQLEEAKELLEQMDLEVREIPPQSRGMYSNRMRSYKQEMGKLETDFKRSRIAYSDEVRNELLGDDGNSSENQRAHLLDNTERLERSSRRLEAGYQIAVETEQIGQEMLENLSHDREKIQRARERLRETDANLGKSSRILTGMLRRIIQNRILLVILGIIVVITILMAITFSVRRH
UniProt Q8IV63: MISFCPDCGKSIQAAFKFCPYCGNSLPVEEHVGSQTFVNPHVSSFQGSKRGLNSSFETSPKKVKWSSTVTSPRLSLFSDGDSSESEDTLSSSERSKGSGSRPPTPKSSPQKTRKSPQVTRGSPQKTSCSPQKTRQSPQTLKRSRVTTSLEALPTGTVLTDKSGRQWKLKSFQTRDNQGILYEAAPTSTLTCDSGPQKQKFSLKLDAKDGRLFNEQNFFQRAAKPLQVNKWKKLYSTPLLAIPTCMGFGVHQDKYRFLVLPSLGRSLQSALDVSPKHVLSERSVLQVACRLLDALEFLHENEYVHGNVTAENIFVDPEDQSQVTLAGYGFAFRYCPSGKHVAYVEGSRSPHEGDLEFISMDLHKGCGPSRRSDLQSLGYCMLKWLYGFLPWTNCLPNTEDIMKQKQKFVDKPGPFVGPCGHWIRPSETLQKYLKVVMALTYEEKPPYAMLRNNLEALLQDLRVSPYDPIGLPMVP
UniProt Q9Y4E6, whole entry, looked up: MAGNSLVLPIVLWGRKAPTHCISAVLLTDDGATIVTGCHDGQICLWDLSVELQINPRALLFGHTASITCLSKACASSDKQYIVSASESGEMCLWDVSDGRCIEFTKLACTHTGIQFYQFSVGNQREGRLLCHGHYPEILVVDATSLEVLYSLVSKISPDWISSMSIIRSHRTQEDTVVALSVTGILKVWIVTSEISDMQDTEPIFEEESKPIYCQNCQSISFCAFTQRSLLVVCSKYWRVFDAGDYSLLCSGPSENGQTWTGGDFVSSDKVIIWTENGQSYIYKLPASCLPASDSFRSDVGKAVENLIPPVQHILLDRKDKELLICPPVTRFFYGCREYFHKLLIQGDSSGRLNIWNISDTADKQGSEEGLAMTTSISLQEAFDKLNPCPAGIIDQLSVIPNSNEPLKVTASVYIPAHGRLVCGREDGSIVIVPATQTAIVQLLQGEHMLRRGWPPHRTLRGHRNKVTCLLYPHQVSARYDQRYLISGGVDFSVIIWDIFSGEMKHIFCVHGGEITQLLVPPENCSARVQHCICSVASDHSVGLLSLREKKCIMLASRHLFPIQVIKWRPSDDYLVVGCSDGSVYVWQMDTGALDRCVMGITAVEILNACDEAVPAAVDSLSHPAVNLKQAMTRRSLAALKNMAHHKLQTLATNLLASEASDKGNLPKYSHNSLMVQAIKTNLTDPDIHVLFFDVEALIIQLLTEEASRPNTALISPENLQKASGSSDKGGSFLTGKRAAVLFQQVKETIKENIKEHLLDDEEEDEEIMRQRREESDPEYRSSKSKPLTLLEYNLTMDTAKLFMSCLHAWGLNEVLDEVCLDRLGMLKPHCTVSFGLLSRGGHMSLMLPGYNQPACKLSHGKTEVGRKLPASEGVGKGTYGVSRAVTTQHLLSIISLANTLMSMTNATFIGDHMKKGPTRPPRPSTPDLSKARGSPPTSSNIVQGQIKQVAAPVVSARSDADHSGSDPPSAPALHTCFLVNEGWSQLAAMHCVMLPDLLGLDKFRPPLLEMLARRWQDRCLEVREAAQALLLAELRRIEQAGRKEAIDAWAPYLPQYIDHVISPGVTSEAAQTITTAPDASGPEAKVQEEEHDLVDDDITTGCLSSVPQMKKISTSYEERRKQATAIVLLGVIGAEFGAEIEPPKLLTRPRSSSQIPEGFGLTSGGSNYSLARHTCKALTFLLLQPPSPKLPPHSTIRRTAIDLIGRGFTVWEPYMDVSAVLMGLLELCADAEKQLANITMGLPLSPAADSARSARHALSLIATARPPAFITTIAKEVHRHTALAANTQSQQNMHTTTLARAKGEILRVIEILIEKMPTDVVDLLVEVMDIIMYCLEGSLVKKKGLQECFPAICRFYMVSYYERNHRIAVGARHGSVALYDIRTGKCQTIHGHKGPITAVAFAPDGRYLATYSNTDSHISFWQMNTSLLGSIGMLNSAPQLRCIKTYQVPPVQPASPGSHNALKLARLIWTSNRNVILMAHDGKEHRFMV
UniProt Q92558: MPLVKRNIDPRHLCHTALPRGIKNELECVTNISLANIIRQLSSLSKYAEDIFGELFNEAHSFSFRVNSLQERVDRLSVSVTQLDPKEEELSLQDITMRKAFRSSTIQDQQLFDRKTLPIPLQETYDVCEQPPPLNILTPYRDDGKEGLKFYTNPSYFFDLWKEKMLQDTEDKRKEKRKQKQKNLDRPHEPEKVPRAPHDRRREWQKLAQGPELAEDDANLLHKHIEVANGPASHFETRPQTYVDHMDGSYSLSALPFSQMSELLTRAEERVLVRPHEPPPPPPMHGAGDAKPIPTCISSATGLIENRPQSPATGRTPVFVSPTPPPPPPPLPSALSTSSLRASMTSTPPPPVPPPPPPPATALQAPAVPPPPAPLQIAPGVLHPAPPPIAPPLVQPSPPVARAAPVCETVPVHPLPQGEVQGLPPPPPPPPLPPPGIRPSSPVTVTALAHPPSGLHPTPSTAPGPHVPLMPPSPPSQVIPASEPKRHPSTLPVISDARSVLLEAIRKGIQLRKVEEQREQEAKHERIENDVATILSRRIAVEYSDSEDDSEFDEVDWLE
UniProt Q9Y484: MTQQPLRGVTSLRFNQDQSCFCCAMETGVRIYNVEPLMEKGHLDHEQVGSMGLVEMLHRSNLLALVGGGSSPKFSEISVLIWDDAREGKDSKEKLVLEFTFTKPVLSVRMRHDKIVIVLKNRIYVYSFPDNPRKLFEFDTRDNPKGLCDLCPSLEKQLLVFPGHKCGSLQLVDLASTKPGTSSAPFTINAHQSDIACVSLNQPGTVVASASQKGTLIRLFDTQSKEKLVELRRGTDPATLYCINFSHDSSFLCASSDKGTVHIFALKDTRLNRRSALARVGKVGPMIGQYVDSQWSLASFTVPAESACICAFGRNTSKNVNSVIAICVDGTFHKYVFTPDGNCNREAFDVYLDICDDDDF

Legend:
Test in all cases: log2 fold change, soluble protein after heating vs DMSO (PISA); higher = thermal stabilisation; K562 cells, 10 uM, 30 min; active = over 0.2 and 3.5 SD of the protein, either way, in both replicates (recomputed)
[1] = compound: C1=CC=C(C=C1)[C@H](COC2=CC3=C(C=C2)NC(=O)N3)NC(=O)C4=CC=CN(C4=O)CC5=CC(=C(C=C5)F)F
How it was run: (§1)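 Soluble protein was quantified by TMTpro 16plex LC-MS/MS after channel sums were equalised. It was obtained as the supernatant after 21,000xg for 90 min from pooled aliquots of K562 cells (2×10^6 cells/mL, 10 μM compound, 30 min) heated for 3 min across 48°C-58°C and extracted in PBS with 0.5% NP-40 at 4°C. Thermal stability values are relative to control samples and come from duplicates. They are given as log2 fold changes.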

[2] = compound: CC1=C(SC2=C1C(=N[C@H](C3=NN=C(N32)C)CC(=O)N)C4=CC=C(C=C4)Cl)C
How it was run: as §1

[3] = compound: CC1=C2C(=CC=C1)N=C(N(C2=O)C3=CC=CC=C3C)CN4C=NC5=C(N=CN=C54)N
How it was run: as §1

[4] = compound: Cc1sc2c(c1C)C(c1ccc(Cl)cc1)=N[C@@H](CC(=O)OC(C)(C)C)c1nnc(C)n1-2
How it was run: as §1

[5] = compound: c1ccc([C@@H]2C[C@H]2NC2CCNCC2)cc1
How it was run: as §1

Measured: log2 fold change

WDR4 (UniProt P57081)
inactive: [1] -0.074 | [2] 0.048 | [3] -0.004 | [4] -0.025 | [5] -0.008

VPS33B (UniProt Q9H267)
inactive: [1] -0.102 | [2] 0.021 | [3] 0.03 | [4] 0.008 | [5] -0.064

WBP4 (UniProt O75554)
inactive: [1] 0.012 | [2] 0.009 | [3] -0.024 | [4] 0.014 | [5] 0.051

WDR12 (UniProt Q9GZL7)
inactive: [1] 0.04 | [2] 0.051 | [3] 0.036 | [4] 0.01 | [5] 0.038

WDR59 (UniProt Q6PJI9)
inactive: [1] 0.047 | [2] 0.006 | [3] 0.087 | [4] 0.003 | [5] 0.127

WDR44 (UniProt Q5JSH3)
inactive: [1] 0.005 | [2] 0.025 | [3] 0.043 | [4] -0.008 | [5] 0.005

3 successive entries from above:
WDR4 (UniProt P57081)
inactive: [1] -0.074 | [2] 0.048 | [3] -0.004 | [4] -0.025 | [5] -0.008

VPS33B (UniProt Q9H267)
inactive: [1] -0.102 | [2] 0.021 | [3] 0.03 | [4] 0.008 | [5] -0.064

WBP4 (UniProt O75554)
inactive: [1] 0.012 | [2] 0.009 | [3] -0.024 | [4] 0.014 | [5] 0.051

(further entries)

WDHD1 (UniProt O75717)
inactive: [1] -0.014 | [2] 0.085 | [3] 0.121 | [4] 0.002 | [5] 0.015

WIZ isoform 3 (UniProt O95785)
inactive: [1] -0.054 | [2] -0.025 | [3] -0.101 | [4] 0.139 | [5] -0.012

WARS1 (UniProt G3V227)
inactive: [1] 0.09 | [2] -0.089 | [3] 0.042 | [4] 0.333 | [5] -0.185

WDR3 (UniProt Q9UNX4)
inactive: [1] -0.02 | [2] -0.238 | [3] -0.112 | [4] 0.177 | [5] 0.023

WRAP73 (UniProt Q9P2S5)
inactive: [1] 0.052 | [2] 0.036 | [3] 0.09 | [4] -0.022 | [5] 0.001

VWDE (UniProt Q8N2E2)
inactive: [1] 0.035 | [2] -0.06 | [3] -0.017 | [4] 0.048 | [5] 0

WDR61 (UniProt Q9GZS3)
inactive: [1] -0.035 | [2] 0.04 | [3] 0.077 | [4] 0.032 | [5] 0.012

WDR1 (UniProt O75083)
inactive: [1] -0.006 | [2] 0.063 | [3] 0.067 | [4] -0.015 | [5] -0.047

WDR75 (UniProt Q8IWA0)
inactive: [1] -0.031 | [2] -0.24 | [3] 0.002 | [4] 0.304 | [5] -0.089

VPS13B (UniProt Q7Z7G8)
inactive: [1] 0 | [2] -0.008 | [3] 0.068 | [4] -0.057 | [5] 0.031

VDAC2 (UniProt P45880)
inactive: [1] 0.031 | [2] 0.042 | [3] 0.039 | [4] -0.012 | [5] 0.021

VKORC1 (UniProt Q9BQB6)
inactive: [1] -0.058 | [2] 0.132 | [3] 0.083 | [4] -0.183 | [5] -0.012

VPS26C (UniProt O14972)
inactive: [1] -0.047 | [2] -0.068 | [3] -0.361 | [4] -0.051 | [5] -0.016

WIPI2 (UniProt Q9Y4P8)
inactive: [1] -0.043 | [2] 0.11 | [3] 0.052 | [4] -0.074 | [5] -0.008

VPS37C (UniProt A5D8V6)
inactive: [1] -0.062 | [2] 0.037 | [3] 0.074 | [4] -0.038 | [5] 0.038

WDR82 (UniProt Q6UXN9)
inactive: [1] 0.021 | [2] -0.124 | [3] -0.084 | [4] 0.078 | [5] -0.01

WDR47 (UniProt O94967)
inactive: [1] 0.019 | [2] 0.004 | [3] -0.042 | [4] -0.031 | [5] 0.078

WDR92 (UniProt Q96MX6)
inactive: [1] -0.011 | [2] -0.005 | [3] 0.084 | [4] -0.083 | [5] -0.035

WASHC5 (UniProt Q12768)
inactive: [1] 0.034 | [2] 0.042 | [3] 0.09 | [4] 0.003 | [5] -0.041

VPS37A (UniProt Q8NEZ2)
inactive: [1] -0.076 | [2] 0.088 | [3] 0.126 | [4] 0.007 | [5] 0.036

VDAC1 (UniProt P21796)
inactive: [1] 0.047 | [2] 0.008 | [3] -0.024 | [4] -0.007 | [5] 0.026

VPS36 (UniProt Q86VN1)
inactive: [1] -0.036 | [2] 0.026 | [3] 0.036 | [4] 0.014 | [5] -0.026

WDR74 (UniProt Q6RFH5)
inactive: [1] 0.028 | [2] -0.162 | [3] -0.22 | [4] 0.108 | [5] 0.016

VKORC1L1, A0A3B3ISV4
inactive: [1] -0.024 | [2] 0.057 | [3] -0.017 | [4] -0.06 | [5] 0.044

VTI1B (UniProt Q9UEU0)
inactive: [1] 0.015 | [2] -0.002 | [3] 0.045 | [4] -0.032 | [5] 0.02

VPS26B (UniProt Q4G0F5)
inactive: [1] -0.057 | [2] 0.07 | [3] 0.066 | [4] 0.011 | [5] -0.001

WEE1 (UniProt P30291)
inactive: [1] 0.116 | [2] -0.031 | [3] -0.059 | [4] 0.132 | [5] 0.11

WASHC2A (UniProt Q641Q2)
inactive: [1] -0.006 | [2] -0.041 | [3] -0.017 | [4] 0.069 | [5] 0.033

VEZT (UniProt Q9HBM0)
inactive: [1] -0.049 | [2] -0.15 | [3] 0.189 | [4] 0.076 | [5] 0.184

VTI1A (UniProt Q96AJ9)
inactive: [1] 0.032 | [2] 0.009 | [3] 0.091 | [4] -0.023 | [5] 0.07

WDR6 (UniProt Q9NNW5)
inactive: [1] -0.024 | [2] 0 | [3] 0.038 | [4] 0.006 | [5] -0.035

WASH2P (UniProt Q6VEQ5)
inactive: [1] 0.015 | [2] -0.015 | [3] 0.026 | [4] 0.041 | [5] 0.027

WIPF3 (UniProt A6NGB9)
inactive: [1] 0.02 | [2] 0.049 | [3] -0.144 | [4] -0.04 | [5] 0.082

VRK3 (UniProt Q8IV63)
inactive: [1] 0.034 | [2] -0.011 | [3] 0.02 | [4] -0.118 | [5] 0.032

VPS16 (UniProt Q9H269)
inactive: [1] -0.188 | [2] 0.048 | [3] 0.106 | [4] -0.021 | [5] -0.038

VPS29 isoform 2 (UniProt Q9UBQ0)
inactive: [1] -0.019 | [2] -0.005 | [3] 0.051 | [4] 0 | [5] 0.062

WDR19 (UniProt Q8NEZ3)
inactive: [1] -0.019 | [2] 0.116 | [3] 0.363 | [4] -0.105 | [5] 0.013

VPS26A (UniProt O75436)
inactive: [1] -0.029 | [2] 0.08 | [3] 0.055 | [4] -0.021 | [5] -0.004

WDR7 (UniProt Q9Y4E6)
inactive: [1] -0.037 | [2] 0.013 | [3] -0.068 | [4] -0.131 | [5] -0.093

VPS18 (UniProt Q9P253)
inactive: [1] 0.014 | [2] -0.052 | [3] -0.03 | [4] -0.03 | [5] 0.004

WDR62 isoform 4 (UniProt O43379)
inactive: [1] 0.007 | [2] 0.027 | [3] 0.031 | [4] 0.004 | [5] 0.009

VCX3B (UniProt Q9H321)
inactive: [1] 0.001 | [2] -0.007 | [3] 0.023 | [4] -0.014 | [5] 0.015

VPS11 (UniProt Q9H270)
inactive: [1] -0.089 | [2] 0.014 | [3] 0.118 | [4] -0.001 | [5] -0.047

WASF1 (UniProt Q92558)
inactive: [1] -0.018 | [2] -0.065 | [3] 0.006 | [4] -0.009 | [5] 0.061

VPS53 isoform 4 (UniProt Q5VIR6)
inactive: [1] -0.009 | [2] 0.02 | [3] 0.049 | [4] -0.006 | [5] -0.007

WDR45 (UniProt Q9Y484)
inactive: [1] -0.029 | [2] 0.066 | [3] -0.008 | [4] -0.051 | [5] 0.035

WASL (UniProt O00401)
inactive: [1] -0.043 | [2] 0.019 | [3] 0.054 | [4] 0.024 | [5] -0.071
